Data as given in PubChem BioAssay AID504804 (Drosophila RNAi Screening Center, 2011).

- Screen: 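Knock-downs shielding fly cells from apoptosis caused by DNA damage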 (primary screen)
- System: Drosophila Kc cells
- Reagent: long dsRNA against Drosophila genes, 0.5 µg dsRNA per well
- Timing: 96 h (48 h knock-down, then 48 h drug)
- Treatment: doxorubicin 5 µg/ml for 48 h, added 48 h after dsRNA
- Measured: 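Luminescent ATP counts per replicate, not normalised, reflecting viable cells after 48 h dsRNA knock-down followed by 48 h of 5 µg/ml doxorubicin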
- Reading the numbers: raw ATP luminescence: higher = more viable cells, protection from doxorubicin
- Active means: 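z-score of 2 or more over plate mean in both duplicates, retained only when retests and separate dsRNAs confirm the protection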
The deposit covers about 19,000 reagents; below is a random part of those that have a named target and a result. In the full data, 47 (0.25%) got an active call. 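Signals are raw, not normalised; exact z-scores behind calls not deposited; actives needed confirmation, so some wells reaching 2 SD are inactive.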 A plus sign joins genes that one reagent is predicted to hit. Reagent sequences are not shown.

predicted target	dsRNA	raw ATP luminescence, replicate 1	raw ATP luminescence, replicate 2	Outcome
CG14915	DRSC02399	44417	87073	inactive
crim	DRSC10573	43030	44327	inactive
prd1	DRSC15227	60200	44230	inactive
Zip89B	DRSC16128	50620	64540	inactive
CG9727	DRSC12585	46063	20517	inactive
CtsL3	DRSC12171	41410	18743	inactive
CG5973	DRSC02918	1.03e5	66713	inactive
CG7794	DRSC16313	54640	54680	inactive
CG18563	DRSC02676	88563	1.11e5	inactive
FLASH	DRSC06872	2.22e5	2.11e5	inactive
Cyt-b5	DRSC07392	46547	41427	inactive
Cad88C	DRSC15486	73040	61030	inactive
Su(var)3-3	DRSC10250	39840	22393	inactive
CG4582	DRSC15605	50530	54420	inactive
mAcon2	DRSC15629	24630	70443	inactive
Hrs	DRSC00549	91620	75343	inactive
CG32241	DRSC08100	1.60e5	1.52e5	inactive
EMC1	DRSC15455	41247	33797	inactive
TwdlJ	DRSC15812	33040	44050	inactive
CG42615	DRSC05121	88187	77607	inactive
CG30395	DRSC03896	63317	61753	inactive
alpha-Man-IIa	DRSC15393	57200	56800	inactive
Acsx1L	DRSC16014	47610	39710	inactive
CG17129	DRSC08508	81820	62273	inactive
CG16852	DRSC01876	77487	77680	inactive
ACXA	DRSC00844	81067	76107	inactive
CG13724	DRSC10053	41013	33213	inactive
CG1416	DRSC03706	61243	72177	inactive
hoka	DRSC08313	81923	1.02e5	inactive
Paip2	DRSC14504	67353	29383	inactive
BORCS7 + CG13430	DRSC06392	70953	69503	inactive
CG14110	DRSC10113	80653	79340	inactive
Diedel	DRSC14317	60760	53150	inactive
ro	DRSC17046	46770	49940	inactive
Or67a	DRSC11240	1.24e5	98297	inactive
CG4440	DRSC02747	45087	52120	inactive
mRpL12	DRSC10467	49323	37217	inactive

No new results follow: an excerpt of the list.
predicted target	dsRNA	raw ATP luminescence, replicate 1	raw ATP luminescence, replicate 2	Outcome
CG32241	DRSC08100	1.60e5	1.52e5	inactive
EMC1	DRSC15455	41247	33797	inactive
TwdlJ	DRSC15812	33040	44050	inactive
CG42615	DRSC05121	88187	77607	inactive
CG30395	DRSC03896	63317	61753	inactive
alpha-Man-IIa	DRSC15393	57200	56800	inactive
Acsx1L	DRSC16014	47610	39710	inactive
CG17129	DRSC08508	81820	62273	inactive
CG16852	DRSC01876	77487	77680	inactive

Continued:
predicted target	dsRNA	raw ATP luminescence, replicate 1	raw ATP luminescence, replicate 2	Outcome
WDR79	DRSC03159	1.04e5	61690	inactive
CG10591	DRSC09748	44303	41947	inactive
CG14143	DRSC10146	1.02e5	67193	inactive
GNBP2	DRSC10404	29587	28127	inactive
CG10651	DRSC02086	57920	84497	inactive
PpN58A	DRSC04642	63997	58323	inactive
CG34376	DRSC14695	48260	47570	inactive
CG34376	DRSC14696	43150	55080	inactive
CG34376	DRSC14701	49070	51200	inactive
kek4	DRSC03220	92367	73557	inactive
CG5096	DRSC02813	49663	67210	inactive
CG32638	DRSC18968	2.27e5	2.54e5	inactive
Rh4 + sina	DRSC11396	24223	25987	inactive
Oamb	DRSC13433	1.60e5	1.80e5	inactive
Oamb	DRSC15120	47280	44150	inactive
Oamb	DRSC16763	69390	82490	inactive
Fur2	DRSC19817	2.65e5	2.66e5	inactive
Cpr72Ec	DRSC10449	16733	23413	inactive
rumpel	DRSC18436	50530	55920	inactive
Ten-a	DRSC18924	1.67e5	2.02e5	inactive
Ten-a	DRSC19496	57090	55520	inactive
Ten-a	DRSC19700	3.40e5	3.13e5	inactive
Ten-a	DRSC19793	4.13e5	3.82e5	inactive
Ten-a	DRSC19864	3.26e5	3.45e5	inactive
Ten-a	DRSC19865	3.53e5	3.89e5	inactive
Ten-a	DRSC20290	3.63e5	3.20e5	inactive
